These are yes or no findings as the source states them, for the method shown. In cells and extracts the contact can be indirect. Some results given as binding are weak or reduced against the parent protein; the word gives no strength.
Experiments:
[1] = target: fibrin(ogen) α-chain in the fibrin clot (human) (UniProt P02671); test: cross-linking
[2] = target: fibrin(ogen) β-chain in the fibrin clot (human) (UniProt P02675); test: cross-linking

Protein sequences, listed by entry. Tags and fused reporters are not part of them. Lines headed by an entry give the natural chain unless they say otherwise; changes in a name come on top. Chains listed by the source or under a name are the forms on record and can include a tag or linker. Residues count along the entry.
fibrin(ogen) α-chain in the fibrin clot (P02671, form named): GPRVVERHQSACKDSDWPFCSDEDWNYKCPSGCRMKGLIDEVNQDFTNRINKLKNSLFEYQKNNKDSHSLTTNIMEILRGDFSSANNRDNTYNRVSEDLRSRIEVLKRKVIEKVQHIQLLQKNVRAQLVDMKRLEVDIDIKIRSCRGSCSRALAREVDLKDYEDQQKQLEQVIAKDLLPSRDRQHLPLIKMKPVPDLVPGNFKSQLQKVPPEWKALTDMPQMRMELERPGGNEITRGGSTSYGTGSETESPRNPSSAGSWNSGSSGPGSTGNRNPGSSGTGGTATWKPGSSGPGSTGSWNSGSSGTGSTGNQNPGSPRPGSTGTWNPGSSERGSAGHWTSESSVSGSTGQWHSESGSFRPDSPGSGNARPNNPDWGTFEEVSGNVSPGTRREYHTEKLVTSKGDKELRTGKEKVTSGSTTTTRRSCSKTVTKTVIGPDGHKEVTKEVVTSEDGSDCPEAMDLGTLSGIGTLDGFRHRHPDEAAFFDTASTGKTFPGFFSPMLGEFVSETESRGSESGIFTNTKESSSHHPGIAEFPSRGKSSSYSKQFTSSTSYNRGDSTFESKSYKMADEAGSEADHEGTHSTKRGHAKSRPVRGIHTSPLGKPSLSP
UniProt P02675, residues 45-491: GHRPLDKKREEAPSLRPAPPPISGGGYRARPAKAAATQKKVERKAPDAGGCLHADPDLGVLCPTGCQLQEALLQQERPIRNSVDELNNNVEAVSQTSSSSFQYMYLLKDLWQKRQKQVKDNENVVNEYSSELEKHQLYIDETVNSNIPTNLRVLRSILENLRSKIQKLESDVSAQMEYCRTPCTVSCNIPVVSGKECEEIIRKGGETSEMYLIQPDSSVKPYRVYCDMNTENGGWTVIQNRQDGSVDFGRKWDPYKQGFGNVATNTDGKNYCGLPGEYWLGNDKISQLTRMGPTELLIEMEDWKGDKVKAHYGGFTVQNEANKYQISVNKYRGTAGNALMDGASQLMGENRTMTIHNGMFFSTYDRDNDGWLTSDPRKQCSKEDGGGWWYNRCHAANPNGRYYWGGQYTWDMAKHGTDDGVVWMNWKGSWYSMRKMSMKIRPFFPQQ
UniProt P02768, residues 25-609: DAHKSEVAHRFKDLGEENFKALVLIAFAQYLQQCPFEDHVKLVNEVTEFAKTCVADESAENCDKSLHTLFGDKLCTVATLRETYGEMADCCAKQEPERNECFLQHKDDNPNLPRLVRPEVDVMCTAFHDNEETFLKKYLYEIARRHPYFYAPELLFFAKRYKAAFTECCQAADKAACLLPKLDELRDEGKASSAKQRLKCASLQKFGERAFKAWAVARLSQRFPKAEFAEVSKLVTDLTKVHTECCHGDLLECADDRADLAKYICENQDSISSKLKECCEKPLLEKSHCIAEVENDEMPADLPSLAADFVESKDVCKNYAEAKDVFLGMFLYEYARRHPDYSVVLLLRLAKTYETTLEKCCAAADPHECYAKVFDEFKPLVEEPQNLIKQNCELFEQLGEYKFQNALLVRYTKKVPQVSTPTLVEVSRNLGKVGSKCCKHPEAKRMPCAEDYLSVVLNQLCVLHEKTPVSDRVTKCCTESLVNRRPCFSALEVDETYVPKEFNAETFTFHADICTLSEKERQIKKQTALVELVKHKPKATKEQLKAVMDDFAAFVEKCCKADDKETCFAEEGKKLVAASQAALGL
fibrin(ogen) γ-chain in the fibrin clot (P02679-2, form named): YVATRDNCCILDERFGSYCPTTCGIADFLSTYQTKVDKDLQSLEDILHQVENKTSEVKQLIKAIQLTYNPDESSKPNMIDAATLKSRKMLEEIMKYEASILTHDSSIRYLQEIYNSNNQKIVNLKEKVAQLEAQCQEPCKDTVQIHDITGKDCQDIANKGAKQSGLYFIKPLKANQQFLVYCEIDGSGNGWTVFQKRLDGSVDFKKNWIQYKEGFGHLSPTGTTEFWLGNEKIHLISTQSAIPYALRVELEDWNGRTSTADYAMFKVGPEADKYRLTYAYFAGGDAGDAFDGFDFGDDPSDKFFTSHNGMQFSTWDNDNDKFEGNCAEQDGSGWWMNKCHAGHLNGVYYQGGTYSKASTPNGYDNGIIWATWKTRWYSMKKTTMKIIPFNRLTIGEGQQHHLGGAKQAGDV

| binding [1] | binding [2] | Substance |
| --- | --- | --- |
| binds | binds | Human Serum Albumin (from UniProt P02768 25-609) |
| binds | binds | fibrin(ogen) γ-chain in the fibrin clot (from UniProt P02679-2 27-437) |
| binds |  | fibrin(ogen) β-chain in the fibrin clot (from UniProt P02675 45-491) |

— paper doi:10.1101/739318
